According to the supplement of paper PMC8728848:
Some of the results follow.

Tests used:
Assay in all cases: glycan array binding signal (z-score within array); higher = stronger binding
Conditions in all cases: glycan notation: IUPAC condensed, linker removed
[1] = target: Fuc(a1-2)Gal(b1-4)GlcNAc(b1-3)Gal(b1-4)GlcNAc(b1-3)Gal(b1-4)GlcNAc
How it was run: (§1)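 Columns mapping to the same glycan were averaged after glycan names were converted to IUPAC-condensed notation. The data come from 3228 arrays in the Consortium for Functional Glycomics database, limited to those with an available protein sequence. Binding is reported as a within-array Z-score averaged across arrays of one protein sequence and across linkers.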

[2] = target: Fuc(a1-2)Gal(b1-4)GlcNAc(b1-3)GalNAc
How it was run: as §1

[3] = target: Fuc(a1-2)Gal(b1-4)GlcNAc(b1-3)[Fuc(a1-2)Gal(b1-4)GlcNAc(b1-6)]GalNAc
How it was run: as §1

[4] = target: Fuc(a1-2)Gal(b1-4)GlcNAc(b1-3)[Fuc(a1-3)[Gal(b1-4)]GlcNAc(b1-6)]Gal(b1-4)Glc
How it was run: as §1

[5] = target: Fuc(a1-2)Gal(b1-4)GlcNAc(b1-6)GalNAc
How it was run: as §1

[6] = target: Fuc(a1-2)Gal(b1-4)GlcNAc6S
How it was run: as §1

[7] = target: Fuc(a1-2)Gal(b1-4)[Fuc(a1-3)]GlcNAc
How it was run: as §1

[8] = target: Fuc(a1-2)Gal(b1-4)[Fuc(a1-3)]GlcNAc(b1-2)Man(a1-3)[Fuc(a1-2)Gal(b1-4)[Fuc(a1-3)]GlcNAc(b1-2)Man(a1-6)]Man(b1-4)GlcNAc(b1-4)[Fuc(a1-6)]GlcNAc
How it was run: as §1

[9] = target: Fuc(a1-2)Gal(b1-4)[Fuc(a1-3)]GlcNAc(b1-2)[Fuc(a1-2)Gal(b1-4)[Fuc(a1-3)]GlcNAc(b1-4)]Man(a1-3)[Fuc(a1-2)Gal(b1-4)[Fuc(a1-3)]GlcNAc(b1-2)Man(a1-6)]Man(b1-4)GlcNAc(b1-4)GlcNAc
How it was run: as §1

[10] = target: Fuc(a1-2)Gal(b1-4)[Fuc(a1-3)]GlcNAc(b1-3)Gal(b1-4)[Fuc(a1-3)]GlcNAc
How it was run: as §1

[11] = target: Fuc(a1-2)Gal(b1-4)[Fuc(a1-3)]GlcNAc(b1-3)Gal(b1-4)[Fuc(a1-3)]GlcNAc(b1-3)Gal(b1-4)[Fuc(a1-3)]GlcNAc
How it was run: as §1

[12] = target: Fuc(a1-2)Gal(b1-4)[Fuc(a1-3)]GlcNAc(b1-3)GalNAc
How it was run: as §1

[13] = target: Fuc(a1-2)Gal(b1-4)[Fuc(a1-3)]GlcNAc(b1-3)[Neu5Ac(a2-6)Gal(b1-4)GlcNAc(b1-6)]Gal(b1-4)Glc
How it was run: as §1

[14] = target: Fuc(a1-2)Gal3S(b1-4)GlcNAc
How it was run: as §1

[15] = target: Fuc(a1-2)Gal6S(b1-3)GlcNAc
How it was run: as §1

[16] = target: Fuc(a1-2)Gal6S(b1-3)GlcNAc6S
How it was run: as §1

Fuc(a1-2)Gal6S(b1-4)Glc = target: Fuc(a1-2)Gal6S(b1-4)Glc
How it was run: as §1

[17] = target: Fuc(a1-2)Gal6S(b1-4)Glc6S
How it was run: as §1

Fuc(a1-2)[Gal(a1-3)]Gal = target: Fuc(a1-2)[Gal(a1-3)]Gal
How it was run: as §1

[18] = target: Fuc(a1-2)[Gal(a1-3)]Gal(b1-3)GalNAc
How it was run: as §1

[19] = target: Fuc(a1-2)[Gal(a1-3)]Gal(b1-3)GalNAc(b1-3)Gal(a1-4)Gal(b1-4)Glc
How it was run: as §1

[20] = target: Fuc(a1-2)[Gal(a1-3)]Gal(b1-3)GlcNAc
How it was run: as §1

[21] = target: Fuc(a1-2)[Gal(a1-3)]Gal(b1-3)GlcNAc(b1-2)Man(a1-3)[Fuc(a1-2)[Gal(a1-3)]Gal(b1-3)GlcNAc(b1-2)Man(a1-6)]Man(b1-4)GlcNAc(b1-4)GlcNAc
How it was run: as §1

[22] = target: Fuc(a1-2)[Gal(a1-3)]Gal(b1-3)GlcNAc(b1-2)Man(a1-3)[Fuc(a1-2)[Gal(a1-3)]Gal(b1-3)GlcNAc(b1-2)Man(a1-6)]Man(b1-4)GlcNAc(b1-4)[Fuc(a1-6)]GlcNAc
How it was run: as §1

[23] = target: Fuc(a1-2)[Gal(a1-3)]Gal(b1-3)GlcNAc(b1-3)GalNAc
How it was run: as §1

[24] = target: Fuc(a1-2)[Gal(a1-3)]Gal(b1-3)GlcNAc(b1-6)GalNAc
How it was run: as §1

[25] = target: Fuc(a1-2)[Gal(a1-3)]Gal(b1-4)Glc
How it was run: as §1

[26] = target: Fuc(a1-2)[Gal(a1-3)]Gal(b1-4)GlcNAc
How it was run: as §1

[27] = target: Fuc(a1-2)[Gal(a1-3)]Gal(b1-4)GlcNAc(b1-2)Man
How it was run: as §1

[28] = target: Fuc(a1-2)[Gal(a1-3)]Gal(b1-4)GlcNAc(b1-2)Man(a1-3)[Fuc(a1-2)[Gal(a1-3)]Gal(b1-4)GlcNAc(b1-2)Man(a1-6)]Man(b1-4)GlcNAc(b1-4)GlcNAc
How it was run: as §1

B1: Wzz (Escherichia coli) (protein)
chain: MRTWKFPSVRVMMRVENNNVSGQNHDPEQIDLIDLLVQLWRGKMTIIISVIVAIVLAIGYLAVAKEKWTSTAIITQPDVGQIAGYNNAMNVIYGQAAPKVSDLQETLIGRFSSAFSALAETLDNQEEPEKLTIEPSVKNQQLPLTVSYVGQTAEGAQMKLAQYIQQVDDKVNQELEKDLKDNIALGRKNLQDSLRTQEVVAQEQKDLRIRQIQEALQYANQAQVTKPQIQQTGEDITQDTLFLLGSEALESMIKHEATRPLVFSSNYYQTRQNLLDIDNLDVDKLDIHAYLYVMKPTLPIRRDSPKKAITLILAVLLGGMVGAGIVLGRNALRNYNAK
glycan array binding signal (z-score) [1]: -0.292
glycan array binding signal (z-score) [2]: 0.153
glycan array binding signal (z-score) [3]: 0.1
glycan array binding signal (z-score) [4]: 0.371
glycan array binding signal (z-score) [5]: 0.365
glycan array binding signal (z-score) [6]: -0.388
glycan array binding signal (z-score) [7]: 0.133
glycan array binding signal (z-score) [8]: -0.807
glycan array binding signal (z-score) [9]: -0.098
glycan array binding signal (z-score) [10]: 1.07
glycan array binding signal (z-score) [11]: -0.281
glycan array binding signal (z-score) [12]: 0.591
glycan array binding signal (z-score) [13]: -0.309
glycan array binding signal (z-score) [14]: -1.07
glycan array binding signal (z-score) [15]: -0.515
glycan array binding signal (z-score) [16]: 2.91
glycan array binding signal (z-score) (Fuc(a1-2)Gal6S(b1-4)Glc): -0.255
glycan array binding signal (z-score) [17]: -0.22
glycan array binding signal (z-score) (Fuc(a1-2)[Gal(a1-3)]Gal): -0.641
glycan array binding signal (z-score) [18]: 0.243
glycan array binding signal (z-score) [19]: -0.485
glycan array binding signal (z-score) [20]: -0.492
glycan array binding signal (z-score) [21]: -0.981
glycan array binding signal (z-score) [22]: -0.018
glycan array binding signal (z-score) [23]: -0.48
glycan array binding signal (z-score) [24]: -0.173
glycan array binding signal (z-score) [25]: 0.055
glycan array binding signal (z-score) [26]: -0.115
glycan array binding signal (z-score) [27]: -0.349
glycan array binding signal (z-score) [28]: 0.605
